Measurements reported in paper PMC10373986.
Results are given in words; binding and its absence hold for the method and conditions named. In cells and extracts the contact can be indirect. Some results given as binding are weak or reduced against the parent protein; the word gives no strength.

Sequences of proteins named here, by UniProt entry; tags and fusion partners are left off. Residues count along the entry.
UniProt Q02487, residues 136-901: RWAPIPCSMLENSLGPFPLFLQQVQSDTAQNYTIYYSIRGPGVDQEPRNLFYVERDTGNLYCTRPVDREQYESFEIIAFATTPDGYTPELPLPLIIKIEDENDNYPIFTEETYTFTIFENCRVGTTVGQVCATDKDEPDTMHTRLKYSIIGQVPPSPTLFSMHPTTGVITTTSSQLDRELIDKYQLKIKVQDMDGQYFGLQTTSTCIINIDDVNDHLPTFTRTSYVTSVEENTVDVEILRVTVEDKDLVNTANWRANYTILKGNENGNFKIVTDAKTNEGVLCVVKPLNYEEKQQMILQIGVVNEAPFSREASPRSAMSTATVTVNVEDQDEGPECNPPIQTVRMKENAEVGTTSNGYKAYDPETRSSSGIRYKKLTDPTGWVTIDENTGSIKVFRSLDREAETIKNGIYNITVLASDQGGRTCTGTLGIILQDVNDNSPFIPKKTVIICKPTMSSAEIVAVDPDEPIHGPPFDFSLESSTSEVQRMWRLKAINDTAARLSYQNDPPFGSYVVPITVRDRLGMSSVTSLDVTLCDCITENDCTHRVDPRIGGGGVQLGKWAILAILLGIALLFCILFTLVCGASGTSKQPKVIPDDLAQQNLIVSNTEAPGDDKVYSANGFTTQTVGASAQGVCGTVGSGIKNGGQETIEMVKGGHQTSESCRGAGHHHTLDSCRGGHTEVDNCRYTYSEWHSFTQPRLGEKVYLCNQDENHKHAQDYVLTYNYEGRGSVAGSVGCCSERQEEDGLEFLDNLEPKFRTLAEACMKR

Biological target: desmocollin2 (human) (UniProt Q02487)
Assay: co-IP; lysates of BC, Lenti-NC and Lenti-DSC2 cells; antibodies on magnetic protein G beads, overnight at 4° C; precipitated by DSC2, γ-catenin detected by western blot

B1: γ-catenin (protein, UniProt P14923 1-745)
chain: MEVMNLMEQPIKVTEWQQTYTYDSGIHSGANTCVPSVSSKGIMEEDEACGRQYTLKKTTTYTQGVPPSQGDLEYQMSTTARAKRVREAMCPGVSGEDSSLLLATQVEGQATNLQRLAEPSQLLKSAIVHLINYQDDAELATRALPELTKLLNDEDPVVVTKAAMIVNQLSKKEASRRALMGSPQLVAAVVRTMQNTSDLDTARCTTSILHNLSHHREGLLAIFKSGGIPALVRMLSSPVESVLFYAITTLHNLLLYQEGAKMAVRLADGLQKMVPLLNKNNPKFLAITTDCLQLLAYGNQESKLIILANGGPQALVQIMRNYSYEKLLWTTSRVLKVLSVCPSNKPAIVEAGGMQALGKHLTSNSPRLVQNCLWTLRNLSDVATKQEGLESVLKILVNQLSVDDVNVLTCATGTLSNLTCNNSKNKTLVTQNSGVEALIHAILRAGDKDDITEPAVCALRHLTSRHPEAEMAQNSVRLNYGIPAIVKLLNQPNQWPLVKATIGLIRNLALCPANHAPLQEAAVIPRLVQLLVKAHQDAQRHVAAGTQQPYTDGVRMEEIVEGCTGALHILARDPMNRMEIFRLNTIPLFVQLLYSSVENIQRVAAGVLCELAQDKEAADAIDAEGASAPLMELLHSRNEGTATYAAAVLFRISEDKNPDYRKRVSVELTNSLFKHDPAAWEAAQSMIPINEPYGDDMDATYRPMYSSDVPLDPLEMHMDMDGDYPIDTYSDGLRPPYPTADHMLA
  binding: binds
